# Hit rate of the full screen: of about 390,000 compounds, about 910 (0.23%) were called active. This list was built around the results that the source calls inconclusive (neither active nor inactive); the mix of calls is not that of the screen. The call rests on the fitted dose curve; in most records, active means well fitted inhibition curve with a large enough effect; inconclusive means small, poorly fitted or top-dose-only effect; inactive means no such curve, though single readings can be large or run the other way. Where the call is inconclusive, the potency comes from a doubtful curve fit.
# Chains of the proteins cited; added tags and fusions are not shown. Lines headed by an entry give the natural chain unless they say otherwise; changes in a name come on top.
# UniProt O94782: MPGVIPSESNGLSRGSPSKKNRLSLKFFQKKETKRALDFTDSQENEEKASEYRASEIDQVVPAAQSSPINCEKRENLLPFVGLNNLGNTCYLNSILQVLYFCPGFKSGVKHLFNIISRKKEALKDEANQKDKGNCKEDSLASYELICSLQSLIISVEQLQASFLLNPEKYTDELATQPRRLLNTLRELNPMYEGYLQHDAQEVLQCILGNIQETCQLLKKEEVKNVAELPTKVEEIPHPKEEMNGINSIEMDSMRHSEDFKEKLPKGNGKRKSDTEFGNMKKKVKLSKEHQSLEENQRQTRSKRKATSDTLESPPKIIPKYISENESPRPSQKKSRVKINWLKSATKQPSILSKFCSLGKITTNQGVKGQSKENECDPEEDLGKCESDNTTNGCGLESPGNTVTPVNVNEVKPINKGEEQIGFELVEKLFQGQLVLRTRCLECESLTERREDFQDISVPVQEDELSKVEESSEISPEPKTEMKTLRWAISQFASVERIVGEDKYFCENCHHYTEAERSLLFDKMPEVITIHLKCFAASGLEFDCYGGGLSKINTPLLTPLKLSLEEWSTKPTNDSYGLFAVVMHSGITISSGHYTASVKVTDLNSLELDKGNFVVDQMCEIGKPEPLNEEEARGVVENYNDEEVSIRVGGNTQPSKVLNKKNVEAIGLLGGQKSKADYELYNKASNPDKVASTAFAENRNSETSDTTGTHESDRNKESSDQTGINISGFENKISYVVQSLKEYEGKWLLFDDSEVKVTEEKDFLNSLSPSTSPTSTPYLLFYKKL
# Molecular target: Ubiquitin carboxyl-terminal hydrolase 1 (Homo sapiens) (UniProt O94782)
# Assay: Inhibitors of USP1/UAF1: Primary Screen; further: nearly all actives have a fitted effect of over 60% in size
# Conditions: recombinant USP1/UAF1, Ub-Rhodamine cleavage fluorescence; activity change, negative = inhibition: at 57.1 µM (top of the series)
# Method in brief: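 Step one: compound is pinned into 1nM USP1/UAF1 in HEPES pH 7.8 buffer with TCEP. Step two: 15 min room-temperature incubation. Step three: Ub-Rho (150nM final) starts cleavage, tracked by fluorescence over six one-minute reads.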
# On the % scale 0 is the no-effect control and ±100 the full control effect; potency means the concentration at half of the fitted maximal effect.
SMILES,Potency,"activity change, negative = inhibition"
CCOC(=O)N1CCc2c(sc(NCc3cccc(F)c3)c2C(=O)Nc2ccc(OC)cc2)C1,"inconclusive: 25.1 µM [inhibitor, partial curve]",–
O=C(OCn1ncc(Br)c(Br)c1=O)c1ccc(F)cc1,"inconclusive: 50.1 µM [inhibitor, partial curve]",–
COc1cc(CNCc2ccccn2)ccc1OCc1cccc(Cl)c1,"inconclusive: 35.5 µM [inhibitor, partial curve, poor fit]",–
O=C(/C(=C(\[O-])c1ccccc1)[n+]1ccc2ccccc2c1)c1ccccc1,"inconclusive: 31.6 µM [inhibitor, partial curve]",–
O=C(COc1ccc(Br)cc1)NCCCNC(=O)c1cccnc1,–,inactive: -12.2%
O=[N+]([O-])c1cc(-c2nc(-c3ccccc3)no2)ccc1NCc1cccnc1,–,inactive: -13.8%
CCOC(=O)/C(C#N)=C1/CCCCCN1C,–,inactive: -16.5%
CCOc1ccccc1CNC(=O)CCC(=O)N1CCSc2ccccc21,–,inactive: 7.44%
O=c1cnc2ccccc2n1Cc1ccc(Br)cc1,"inconclusive: 3.98 µM [inhibitor, partial curve]",–
COC(=O)c1sc2nc3c(cc2c1N)C(=O)CC(C)(C)C3,"inconclusive: 14.1 µM [inhibitor, partial curve]",–
CC(C)[C@H](NS(=O)(=O)c1ccccc1F)C(=O)OCC(=O)Nc1cccc(S(N)(=O)=O)c1,"inconclusive: 15.8 µM [inhibitor, partial curve]",–
CC(=O)c1cccc(NC(=O)Cc2ccc(NC(=O)N3CCCCc4ccccc43)cc2)c1,"inconclusive: 0.112 µM [inhibitor, full curve, poor fit]",–
O=C(CNC(=O)c1ccc2ccccc2c1)Nc1ncccc1O,"inconclusive: 44.7 µM [inhibitor, partial curve]",–
CCCCN1CCCc2cc(CN(CCCN3CCOCC3)C(=O)Nc3ccc(CC)cc3)ccc21,–,inactive: -16.6%
COc1ccc2c(c1)c1c(c(=O)n(Cc3ccccc3)c(=O)n1Cc1ccccc1Cl)n2C,–,inactive: -8.39%
CCN1C(=O)/C(=C\N2CCCc3ccccc32)SC1=S,"inconclusive: 35.5 µM [inhibitor, partial curve, poor fit]",–
c1ccc2nc(-c3ccc4c(c3)OCO4)ccc2c1,–,inactive: -14.9%
Cc1cc(NC(=O)Cc2ccccc2)nc2c1c(=O)oc1ccccc12,"inconclusive: 39.8 µM [inhibitor, partial curve]",–
Cc1ccc(NC(=O)C2CCC(CNS(=O)(=O)c3ccc4c(c3)CCCC(=O)N4)CC2)cc1F (centres undefined),"inconclusive: 44.7 µM [inhibitor, partial curve]",–

# 2 entries from above in a different format:
SMILES | Potency | activity change, negative = inhibition
O=c1cnc2ccccc2n1Cc1ccc(Br)cc1 | inconclusive: 3.98 µM [inhibitor, partial curve] | –
CCCCN1CCCc2cc(CN(CCCN3CCOCC3)C(=O)Nc3ccc(CC)cc3)ccc21 | – | inactive: -16.6%

# From PubChem BioAssay AID743255 (National Center for Advancing Translational Sciences (NCATS), 2014)
